The values that follow come from PubChem BioAssay AID493014 (National Center for Advancing Translational Sciences (NCATS), 2011).

The nature of this test: qHTS Assay to Find Inhibitors of Chronic Active B-Cell Receptor Signaling. Particulars: ABC-DLBCL IkBa-CBG/CBR reporter, luminescence ratio (green luciferase fused to IkBa over red control in TMD8 lymphoma cells), 4 h. In short, it runs like this: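 TMD8 ABC-DLBCL cells carrying doxycycline-inducible green luciferase fused to IkappaBalpha plus unfused red luciferase were exposed to compounds (up to 46 uM) for 4 hrs at 37C. Activity came from the overlap-corrected green/red luminescence ratio.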

[1] abbreviates: measured here: CBR red luminescence, cell number.
Where [2] appears, read: measured here: IkBa-CBG green luminescence.

The other results are listed elsewhere or left out. Shown are side measurements of this screen, not its main read-out; they come without a call. Compounds called inactive in the main read-out are mostly missing here. Potencies come from curve fits of mixed quality, noted in brackets.

For `CCOC(=O)c1c(-n2cnnn2)sc(C)c1C`, the concentration at half-maximal activity (AC50) under setting [1] was 35.5 µM [rising, single point].
Regarding `CCOC(=O)/C=c1\s/c(=C\c2ccc(C(=O)OC)cc2)c(=O)n1CC(=O)Nc1ccccc1`, the AC50 under setting [1] was 6.31 µM [rising, single point].
As for `CC(=O)N1CCc2cc(S(=O)(=O)NCCC(=O)NCCc3ccccc3)ccc21`, the AC50 under setting [1] is 3.26 µM [rising, partial curve, poor fit].
Take `O=C(Nc1ccc(C(F)(F)F)cc1)c1cc(S(=O)(=O)NCC2COc3ccccc3O2)ccc1F` (configuration not stated): the AC50 under setting [1] is 16.4 µM [falling, partial curve, poor fit].
Same read-out and setting: as for `CCC(C)[C@H](NC(=O)[C@@H]1Cc2c([nH]c3ccccc23)C2c3ccccc3C(=O)N21)C(=O)N1CCC[C@@H]1C(=O)O` (some centres not stated), the figure is 11.2 µM [falling, partial curve, poor fit].
For `CC1CCCN(C(=O)c2ccc(NC(=O)CC3SC(N4CCCC4)=NC3=O)cc2)C1` (configuration not stated), the AC50 under setting [1] is 5.8 µM [rising, full curve].
Turning to `CC(C)N(C(=O)CSc1nc2ccccc2n1Cc1ccccc1F)C(C)C`, the half-maximal activity concentration (AC50) under setting [2] is 18.4 µM [rising, single point].
Consider `CCOC(=O)c1sc(SC)c(C(C)=O)c1C`, for which the half-maximal activity concentration (AC50) under setting [1] is 23.1 µM [falling, single point].
In the case of `O=C(OCCCc1cc2ccccc2c(=O)o1)c1ccco1`, under setting [1], the half-maximal activity concentration (AC50) was 3.26 µM [rising, partial curve, poor fit].
Same read-out and setting: as for `O=C(Nc1ccc(-n2cc(Br)cn2)cc1)c1ccncc1`, the figure is 0.251 µM [rising, full curve, poor fit]; as for `CC(C)c1ccc(-c2csc3nc[nH]c(=O)c23)cc1`, 1.41 µM [rising, full curve, poor fit]; as for `Cc1ncc(C(=O)O)c(C(=O)O)c1N`, 3.16 µM [falling, partial curve, poor fit].
Still for that read-out and setting: as for `O=C(N/N=C/c1ccc(-c2ccccc2)o1)c1ccccc1O`, the figure is 3.98 µM [falling, full curve].
On the same count and under the same terms, as for `Cc1sc(N/N=C/c2cccs2)nc1-c1ccccc1`, the figure is 25.9 µM [falling, single point]; as for `O=c1c(-c2n[nH]c(=S)o2)cccn1Cc1ccccc1`, 12.6 µM [falling, partial curve, poor fit]; as for `Nc1ccc2nc(SCc3ccccc3F)sc2c1`, 2.82 µM [rising, partial curve, poor fit].
Turning to `Cc1cc(C)[n+]2[nH]c(N)c(N=Nc3ccccc3)c2n1`, the concentration at half-maximal activity (AC50) under setting [1] is 20 µM [falling, single point].
Take `CSc1ccccc1OCc1cc(C(=O)N2CCc3[nH]cnc3C2c2ccccn2)no1` (configuration not stated): the concentration at half-maximal activity (AC50) under setting [1] was 11.2 µM [falling, partial curve].
The same measure, in the same setting: as for `CCN(CC)c1ccc(C=Nc2cc(C)cc(C)c2)c(O)c1`, the figure is 29.1 µM [falling, partial curve, poor fit].
With `Cc1cccc2c1NC(=O)/C2=C\C(=O)c1cccs1`, the half-maximal activity concentration (AC50) is, setting by setting: under setting [1], 29.1 µM [falling, single point]; under setting [2], 29.1 µM [rising, single point].
Regarding `COc1ccc(C(=O)Nc2cc3c(cc2C#N)OCO3)cc1S(=O)(=O)NCc1ccco1`, the half-maximal activity concentration (AC50) under setting [1] was 22.4 µM [falling, single point].
The same measure, in the same setting: as for `Cc1ccc(NC(=O)CCCc2nc3ccccc3c(=O)[nH]2)c(Cl)c1`, the figure is 13 µM [rising, partial curve, poor fit].
Regarding `COc1cc(C=O)ccc1OC(=O)c1ccc(C(C)C)cc1`, the AC50 under setting [1] is 31.6 µM [rising, single point] and the concentration at half-maximal activity (AC50) under setting [2] was 17.8 µM [falling, partial curve, poor fit].
With `c1ccc2c(-c3nc(-c4ccncc4)no3)cccc2c1`, the half-maximal activity concentration (AC50) under setting [1] is 3.55 µM [rising, full curve].
With `Cc1cc(NC(=O)CN2C(=O)NC(c3ccccc3)(c3ccc(C)c(C)c3)C2=O)no1` (configuration not stated), under setting [1], the AC50 is 29.1 µM [falling, single point].
In the case of `COc1ccc2oc(C(=O)OCc3nnc(-c4ccccc4)o3)c(C)c2c1`, the AC50 under setting [1] was 9.2 µM [rising, partial curve].
In the case of `O=C(COc1ccc(Cl)cc1Cl)Nc1cccnc1`, the AC50 under setting [1] is 10 µM [rising, partial curve].
For the molecule `O=C(NC1CC(=O)N(c2ccc(Cl)cc2)C1)c1cccs1` (configuration not stated), the AC50 under setting [1] is 35.5 µM [falling, single point].
For `Cc1ccnc(NC(=O)C(C)n2cc([N+](=O)[O-])cn2)c1` (configuration not stated), the AC50 under setting [1] is 35.5 µM [falling, single point].
Consider `Cc1ccc(N(Cc2ccccc2)C(=O)c2ccc(S(=O)(=O)N3CCOCC3)cc2)cc1`, for which the AC50 under setting [1] is 32.6 µM [falling, single point].
On to `Cn1c(=O)[nH]c(=O)c2c1nc(SCCN1CCCCC1)n2Cc1ccccc1`, for which the half-maximal activity concentration (AC50) was 1.03 µM [falling, full curve] under setting [1] and 0.58 µM [rising, full curve, poor fit] under setting [2].
Consider `CC(C)(C)c1cc(NC(=O)COC(=O)c2ccc3c(=O)n4c(nc3c2)CCC4)n(-c2ccccc2)n1`, for which, under setting [1], the half-maximal activity concentration (AC50) was 29.1 µM [falling, single point].
Turning to `CCn1c(SCC(=O)Nc2c(C)n(C)n(-c3ccccc3)c2=O)nc2c1c(=O)n(C)c(=O)n2C`, the half-maximal activity concentration (AC50) under setting [1] is 35.5 µM [falling, partial curve, poor fit].
With `Cc1cc(C)n(CCOc2ccc(Cl)cc2Cl)n1`, the half-maximal activity concentration (AC50) under setting [1] was 10 µM [rising, partial curve, poor fit].
`N/C(=N\OC(=O)c1cccs1)c1ccccc1`: the AC50 under setting [1] is 20.6 µM [falling, single point].
Consider `O=c1c(Cl)c(Nc2cccc(Cl)c2)cnn1-c1nc2ccccc2s1`, for which, under setting [1], the AC50 was 14.6 µM [falling, partial curve].
The same measure, in the same setting: as for `Cc1ccc(S(=O)(=O)NCc2ccc(C(=O)N3CCN(c4ccc([N+](=O)[O-])cc4)CC3)cc2)cc1`, the figure is 12.6 µM [falling, partial curve]; as for `CS(=O)(=O)c1sc(C(=O)NC(=S)Nc2ccc(OC(F)(F)F)cc2)c2c1C=CCC2`, 0.2 µM [rising, full curve, poor fit].
For `Nc1ccc(N=Nc2ccccc2)c2cccnc12`, the half-maximal activity concentration (AC50) under setting [2] is 10 µM [falling, partial curve, poor fit].
For the molecule `O=C(Nc1ccc(N=Nc2ccccc2)c(NC(=O)C2CCCO2)c1)C1CCCO1` (configuration not stated), the AC50 was 20.6 µM [falling, partial curve] under setting [1] and 5.17 µM [rising, full curve, poor fit] under setting [2].
On to `COc1ccc(CN2CCC(CNS(=O)(=O)c3cccc(C(F)(F)F)c3)CC2)cc1`, for which, under setting [1], the AC50 is 12.6 µM [falling, partial curve, poor fit].
For the molecule `CCCc1ccccc1OCCNS(=O)(=O)c1cc2c(cc1C)OCC(=O)N2`, under setting [1], the AC50 was 17.8 µM [falling, partial curve, poor fit].
`O=C(CSc1nc(=O)n(Cc2ccco2)c2c1CCC2)NCc1ccc(F)cc1`: the AC50 under setting [1] is 10 µM [falling, single point].
Take `COc1ccc(N=Cc2c(O)n(-c3cccc(C)n3)c(=O)c3ccccc23)cc1`: under setting [1], the AC50 is 4.61 µM [rising, full curve, poor fit].
For `COc1ccc(Cl)c2c1[nH]c1nc(SCc3ccccn3)nnc12`, the half-maximal activity concentration (AC50) under setting [1] was 14.1 µM [falling, single point].
Turning to `O=C(N=Nc1c(O)[nH]c2ccccc12)c1ccco1`, under setting [1], the AC50 was 4.47 µM [falling, full curve].
For the molecule `O=C(Nc1ccccc1F)c1ccc(-c2cccc([N+](=O)[O-])c2)o1`, the AC50 under setting [1] was 4.47 µM [falling, partial curve].
Still for that read-out and setting: as for `O=C(CCc1ccc(O)cc1)c1c(O)cc(O)cc1O`, the figure is 3.55 µM [rising, partial curve, poor fit]; as for `CC(C)(C)C(=O)N1CCN(c2nc3c(F)cccc3s2)CC1`, 35.5 µM [rising, single point]; as for `Cc1ccc(NC(=O)CNc2ccc(OC(C)C)cc2)cc1`, 1.03 µM [falling, full curve, poor fit].
Turning to `Cc1nnc(SCC(=O)Nc2ccccc2)c2ccccc12`, under setting [1], the AC50 is 12.6 µM [falling, partial curve].
On the same count and under the same terms, as for `COc1ccc(/C=C/C(=O)Oc2cccc(/C=N/NC(=O)c3cccc(F)c3)c2)cc1`, the figure is 15.8 µM [falling, single point]; as for `COc1ccccc1N1C(=O)CC(N(O)c2ccccc2)C1=O` (configuration not stated), 3.98 µM [falling, partial curve]; as for `COc1cccc(NC2SC(=O)N(c3ccccc3)C2=O)c1` (configuration not stated), 10.3 µM [falling, partial curve].
With `Cc1cc(OC2CCCCC2)nc(NCc2ccccc2)n1`, the half-maximal activity concentration (AC50) under setting [1] is 1.78 µM [falling, full curve].
For the molecule `O=C(COc1ccc2c(c1)OCO2)NCc1cccs1`, the AC50 under setting [1] is 23.1 µM [falling, single point].
Turning to `Cc1ccc(N2C(=O)CC(Sc3ccccc3C(=O)O)C2=O)cc1` (configuration not stated), under setting [1], the AC50 is 29.1 µM [falling, single point].
The same measure, in the same setting: as for `O=C1CCCc2[nH]c3cccc(/C(=C/c4ccccc4)c4ccccc4)c3c21`, the figure is 12.6 µM [falling, partial curve, poor fit].
Consider `Cc1cc(NC2CCCC2)n2ncc(-c3ccccc3)c2n1`, for which the AC50 under setting [1] was 12.6 µM [falling, single point].
Take `O=C(N/N=C/c1ccccc1O)C1CC(=O)N(c2ccc(Cl)cc2)C1` (configuration not stated): under setting [1], the AC50 is 7.08 µM [falling, full curve, poor fit].
Same read-out and setting: as for `COc1ccc(OC)c(S(=O)(=O)N(C(C)=O)c2ccc3oc(=O)sc3c2)c1`, the figure is 3.98 µM [falling, full curve, poor fit]; as for `O=C(O)c1ccc2c(c1)C(=O)N(NC(=O)c1ccc(O)cc1)C2=O`, 2.06 µM [falling, full curve].
As to `COc1ccc(OCc2cc(C(=O)N3CCCC(OC)C3)no2)c2ccccc12` (configuration not stated), the AC50 under setting [1] is 5.62 µM [rising, single point].
